Results are given in words; binding and its absence hold for the method and conditions named. For part of these data: Binding seen in cells or lysates may run through a third protein. Some binding calls cover weakened binding; strength is not graded here.
T1: NF-κB p50 (mouse (endogenous in MEFs)), P25799
T1 chain: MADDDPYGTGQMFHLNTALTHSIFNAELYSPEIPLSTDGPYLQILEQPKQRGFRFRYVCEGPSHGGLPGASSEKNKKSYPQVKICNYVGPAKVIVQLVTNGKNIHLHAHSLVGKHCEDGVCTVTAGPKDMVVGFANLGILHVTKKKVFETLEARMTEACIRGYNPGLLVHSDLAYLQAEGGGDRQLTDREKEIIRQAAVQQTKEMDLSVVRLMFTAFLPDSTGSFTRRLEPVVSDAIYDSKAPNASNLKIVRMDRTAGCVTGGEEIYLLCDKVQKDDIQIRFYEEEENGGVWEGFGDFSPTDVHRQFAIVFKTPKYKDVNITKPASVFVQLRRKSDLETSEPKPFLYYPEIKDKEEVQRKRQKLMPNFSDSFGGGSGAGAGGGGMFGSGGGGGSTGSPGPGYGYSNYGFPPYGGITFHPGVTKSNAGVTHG

Sequences of proteins named here, by UniProt entry; tags and fusion partners are left off.
UniProt O88522: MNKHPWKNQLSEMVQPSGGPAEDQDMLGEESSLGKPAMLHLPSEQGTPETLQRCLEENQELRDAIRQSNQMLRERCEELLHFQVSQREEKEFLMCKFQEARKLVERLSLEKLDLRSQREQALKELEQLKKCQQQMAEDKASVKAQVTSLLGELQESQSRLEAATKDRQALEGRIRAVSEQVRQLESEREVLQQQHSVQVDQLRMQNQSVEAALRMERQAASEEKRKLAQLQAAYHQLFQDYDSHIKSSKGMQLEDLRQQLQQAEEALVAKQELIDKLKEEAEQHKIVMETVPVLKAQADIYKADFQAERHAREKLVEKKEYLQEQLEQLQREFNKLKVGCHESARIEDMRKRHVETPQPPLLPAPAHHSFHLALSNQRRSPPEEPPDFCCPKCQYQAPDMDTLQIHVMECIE


Tests used:
[1] = target: IKKγ (NEMO) (mouse (endogenous in MEFs)) (UniProt O88522); test: co-IP; IKK complex immunoprecipitated with anti-IKKγ antibody from extracts of IRE1+/+ and ire1-/- MEFs; input, depleted and IP fractions blotted for IKKα, IKKβ and IKKγ (Figure 3E); the same IP from cytoplasmic extracts of WT MEFs (untreated, Tg, DTT, TNFα) depleted IKKα (Figure 1E)
[2] = target: T1, NF-κB p50 (mouse (endogenous in MEFs)), …; test: native gel or EMSA; supershift EMSA: nuclear extracts (MEFs, 5 hr DTT or Tg; CHO cells, 2 hr sample) with 32P-labelled NF-κB site probe, antibodies against p65 and/or p50 added for 1 hr on ice at 4°C, 5% non-denaturing polyacrylamide gel; conditions: remark: other sources report otherwise

binding [1]	binding [2]	Binder
binds		IKKβ (protein, UniProt O88351 1-757) MSWSPSLPTQTCGAWEMKERLGTGGFGNVIRWHNQATGEQIAIKQCRQELSPKNRNRWCLEIQIMRRLNHPNVVAARDVPEGMQNLAPNDLPLLAMEYCQGGDLRRYLNQFENCCGLREGAVLTLLSDIASALRYLHENRIIHRDLKPENIVLQQGEKRLIHKIIDLGYAKELDQGSLCTSFVGTLQYLAPELLEQQKYTVTVDYWSFGTLAFECITGFRPFLPNWQPVQWHSKVRQKSEVDIVVSEDLNGAVKFSSSLPFPNNLNSVLAERLEKWLQLMLMWHPRQRGTDPQYGPNGCFRALDDILNLKLVHVLNMVTGTVHTYPVTEDESLQSLKTRIQENTGILETDQELLQKAGLVLLPDKPATQCISDSKTNEGLTLDMDLVFLLDNSKINYETQITPRPPPESVSCILQEPKRNLSFFQLRKVWGQVWHSIQTLKEDCNRLQQGQRAAMMSLLRNNSCLSKMKNAMASTAQQLKAKLDFFKTSIQIDLEKYKEQTEFGITSDKLLLAWREMEQAVEQCGRENDVKHLVERMMALQTDIVDLQRSPMGRKQGGTLDDLEEQARELYRKLREKPRDQRTEGDSQEMVRLLLQAIQSFEKKVRVIYTQLSKTVVCKQKALELLPKVEEVVSLMNEDERTVVRLQEKRQKELWNLLKIACSKVRGPVSGSPDSMNVSRLSHPGQLMSQPSSACDSLPESDKKSEELVAEAHALCSRLESALQDTVKEQDRSFTTLDWSWLQMEDEERCSLEQACD
	binds	NF-κB p65 (RelA), Q04207 1-549 (protein) MDDLFPLIFPSEPAQASGPYVEIIEQPKQRGMRFRYKCEGRSAGSIPGERSTDTTKTHPTIKINGYTGPGTVRISLVTKDPPHRPHPHELVGKDCRDGYYEADLCPDRSIHSFQNLGIQCVKKRDLEQAISQRIQTNNNPFHVPIEEQRGDYDLNAVRLCFQVTVRDPAGRPLLLTPVLSHPIFDNRAPNTAELKICRVNRNSGSCLGGDEIFLLCDKVQKEDIEVYFTGPGWEARGSFSQADVHRQVAIVFRTPPYADPSLQAPVRVSMQLRRPSDRELSEPMEFQYLPDTDDRHRIEEKRKRTYETFKSIMKKSPFNGPTEPRPPTRRIAVPTRNSTSVPKPAPQPYTFPASLSTINFDEFSPMLLPSGQISNQALALAPSSAPVLAQTMVPSSAMVPLAQPPAPAPVLTPGPPQSLSAPVPKSTQAGEGTLSEALLHLQFDADEDLGALLGNSTDPGVFTDLASVDNSEFQQLLNQGVSMSHSTAEPMLMEYPEAITRLVTGSQRPPDPAPTPLGTSGLPNGLSGDEDFSSIADMDFSALLSQISS
binds		IKKα (protein, UniProt Q60680 1-745) MERPPGLRPGAGGPWEMRERLGTGGFGNVSLYQHRELDLKIAIKSCRLELSSKNRERWCHEIQIMKKLDHANVVKACDVPEELNFLINDVPLLAMEYCSGGDLRKLLNKPENCCGLKESQILSLLSDIGSGIRYLHENKIIHRDLKPENIVLQDVGGKTIHKIIDLGYAKDVDQGSLCTSFVGTLQYLAPELFENKPYTATVDYWSFGTMVFECIAGYRPFLHHLQPFTWHEKIKKKDPKCIFACEEMTGEVRFSSHLPQPNSLCSLIVEPMESWLQLMLNWDPQQRGGPIDLTLKQPRCFALMDHILNLKIVHILNMTSAKIISFLLPCDESLHSLQSRIERETGINTGSQELLSETGISLDPRKPASQCVLDGVRGCDSYMVYLFDKSKTVYEGPFASRSLSDCVNYIVQDSKIQLPIIQLRKVWAEAVHYVSGLKEDYSRLFQGQRAAMLSLLRYNANLTKMKNTLISASQQLKAKLEFFRKSIQLDLERYSEQMTYGISSEKMLKAWKEMEEKAIHYSEVGVIGYLEDQIMSLHTEIMELQKSPYGRRQGDLMESLEQRAIDLYKQLKHRPPDHLYSDSTEMVKIIVHTVQSQDRVLKELFGHLSKLLGCKQKIIDLLPKVEVALSNIKEADNTVMFMQGKRQKEIWHLLKIACTQSSARSLVGSSLEGTVTPPVSAWLPPTLADREHPLTCVVTPQDGETLAQMIEENLNCLGHLSTIIREANEDQSSSLMSLDWSWLAE

From publication PMC3482226
